# Results deposited as PubChem BioAssay AID1224829 (NIAID, 2016).
# Aim: 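Follow-up of TLR4-NF-kappaB regulators using six separate siRNAs for each gene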 (follow-up of hits)
# Cells: mouse RAW264.7 G9 macrophage reporter cells
# Knock-down reagent: single siRNA against mouse genes, 100 nM
# Time to read-out: 2 days of siRNA knock-down, then 40 min of LPS before fixing
# Conditions: LPS (Salmonella minnesota R595) at 10 ng/ml
# Measurement: 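High-content images after 40 min LPS exposure; GFP-p65 nucleus to surrounding ring signal ratio, normalised to plate median and non-targeting control wells, expressed as z-score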
# Scale: p65 translocation z-score and gene median z-score, per vendor: higher = more nuclear NF-kappaB p65 after LPS
# Hit rule: 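An siRNA is called active when the mean z-score of its two replicates is above 2 or below -2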
# Calls: active = changed p65 translocation (either direction); inactive = no clear change
# In all, the deposit lists about 3,800 reagents; below is a random part of them. 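Calls cover raised and lowered translocation; gene median uses one vendor's three siRNAs; qiagen siRNAs acted more weakly than ambion siRNAs.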 A number with no mark means an inactive call. The numbers tell different reagents against one gene apart. Reagent sequences are not shown.
Gene,reagent,siRNA vendor or control pool,"p65 translocation z-score, replicate mean","p65 translocation z-score, replicate 1","p65 translocation z-score, replicate 2","gene median z-score, per vendor"
Raet1b,1,ambion single siRNA,0.932,1.67,0.199,-3.2
Raet1b,2,ambion single siRNA,-3.2 (active),-2.19,-4.2,-3.2
Raet1b,3,ambion single siRNA,-5.27 (active),-4.95,-5.6,-3.2
Raet1b,4,qiagen single siRNA,-0.0328,0.15,-0.216,0.808
Raet1b,5,qiagen single siRNA,5.07 (active),4.47,5.67,0.808
Raet1b,6,qiagen single siRNA,0.405,-0.656,1.47,0.808
C3ar1,1,ambion single siRNA,-0.169,0.33,-0.668,-0.794
C3ar1,2,ambion single siRNA,-2.44 (active),-0.921,-3.95,-0.794
C3ar1,3,ambion single siRNA,-2.06 (active),-0.515,-3.6,-0.794
C3ar1,4,qiagen single siRNA,-0.359,-0.348,-0.37,-0.359
C3ar1,5,qiagen single siRNA,3.3 (active),2.89,3.7,-0.359
C3ar1,6,qiagen single siRNA,-1,-0.833,-1.17,-0.359
Ptprn2,1,ambion single siRNA,-1.84,-0.801,-2.89,-1.78
Ptprn2,2,ambion single siRNA,-0.116,-0.216,-0.0167,-1.78
Ptprn2,3,ambion single siRNA,-2.86 (active),-2.96,-2.75,-1.78
Ptprn2,4,qiagen single siRNA,0.959,0.429,1.49,1.34
Ptprn2,5,qiagen single siRNA,2.41 (active),1.34,3.47,1.34
Ptprn2,6,qiagen single siRNA,-5.89 (active),-5.89,,1.34

Entries above whose gene name begins with C or c (6):
Gene,reagent,siRNA vendor or control pool,"p65 translocation z-score, replicate mean","p65 translocation z-score, replicate 1","p65 translocation z-score, replicate 2","gene median z-score, per vendor"
C3ar1,1,ambion single siRNA,-0.169,0.33,-0.668,-0.794
C3ar1,2,ambion single siRNA,-2.44 (active),-0.921,-3.95,-0.794
C3ar1,3,ambion single siRNA,-2.06 (active),-0.515,-3.6,-0.794
C3ar1,4,qiagen single siRNA,-0.359,-0.348,-0.37,-0.359
C3ar1,5,qiagen single siRNA,3.3 (active),2.89,3.7,-0.359
C3ar1,6,qiagen single siRNA,-1,-0.833,-1.17,-0.359

More results follow:
Gene,reagent,siRNA vendor or control pool,"p65 translocation z-score, replicate mean","p65 translocation z-score, replicate 1","p65 translocation z-score, replicate 2","gene median z-score, per vendor"
Sugp2,1,ambion single siRNA,-2.85 (active),-3.65,-2.06,0.0664
Sugp2,2,ambion single siRNA,2.12 (active),3.96,0.278,0.0664
Sugp2,3,ambion single siRNA,1.15,2.45,-0.145,0.0664
Sugp2,4,qiagen single siRNA,-0.0457,-0.469,0.378,0.378
Sugp2,5,qiagen single siRNA,2.01 (active),1.1,2.91,0.378
Sugp2,6,qiagen single siRNA,-2.23 (active),-2.23,,0.378
Tmem171,1,ambion single siRNA,-10.7 (active),-12,-9.35,-6.09
Tmem171,2,ambion single siRNA,-6.09 (active),-6.09,-6.09,-6.09
Tmem171,3,ambion single siRNA,-2.19 (active),-1.98,-2.4,-6.09
Tmem171,4,qiagen single siRNA,-2.03 (active),-0.723,-3.33,-1
Tmem171,5,qiagen single siRNA,-0.468,-2.7,1.76,-1
Tmem171,6,qiagen single siRNA,-0.0545,-1.28,1.17,-1
Stradb,1,ambion single siRNA,-0.17,0.38,-0.721,-0.17
Stradb,2,ambion single siRNA,1.11,1.23,0.997,-0.17
Stradb,3,ambion single siRNA,-1.82,-2.55,-1.1,-0.17
Stradb,4,qiagen single siRNA,-0.117,0.143,-0.378,0.382
Stradb,5,qiagen single siRNA,0.626,1.24,0.0149,0.382
Stradb,6,qiagen single siRNA,0.727,0.834,0.62,0.382
Supt20,1,ambion single siRNA,-2.03 (active),-0.845,-3.21,-3.15
Supt20,2,ambion single siRNA,-1.86,-0.644,-3.08,-3.15
Supt20,3,ambion single siRNA,-5.14 (active),-5.53,-4.75,-3.15
Supt20,4,qiagen single siRNA,1.16,0.206,2.12,0.206
Supt20,5,qiagen single siRNA,0.183,-2.22,2.59,0.206
Supt20,6,qiagen single siRNA,-2.95 (active),-2.95,,0.206
Med21,1,ambion single siRNA,-1.97,-3.62,-0.334,-3.7
Med21,2,ambion single siRNA,-3.25 (active),-2.72,-3.78,-3.7
Med21,3,ambion single siRNA,-4.3 (active),-3.87,-4.73,-3.7
Med21,4,qiagen single siRNA,0.542,-0.713,1.8,0.336
Med21,5,qiagen single siRNA,-0.464,0.336,-1.26,0.336
Med21,6,qiagen single siRNA,2.11 (active),2.11,,0.336
Chst14,1,ambion single siRNA,-3.14 (active),-2.02,-4.26,-1.71
Chst14,2,ambion single siRNA,-1.06,-2.84,0.72,-1.71
Chst14,3,ambion single siRNA,-1.27,-1.4,-1.13,-1.71
Chst14,4,qiagen single siRNA,0.476,-0.212,1.16,-0.212
Chst14,5,qiagen single siRNA,-0.308,-2.15,1.53,-0.212
Chst14,6,qiagen single siRNA,-5.21 (active),-5.21,,-0.212
